From PubChem BioAssay AID2685 (National Center for Advancing Translational Sciences (NCATS), 2010)
Some of the results follow. Further columns of the screen follow, without active or inactive calls. Compounds called inactive in the main read-out are mostly missing here. Potencies come from curve fits of mixed quality, noted in brackets.

Assay: qHTS Assay for Lipid Storage Modulators in Drosophila S3 Cells;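 on cell number change: cells counted by Cell Tracker Red CMTPX staining in the red channel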
Settings: BODIPY lipid droplet fluorescence, 18-24 h; for cell number change: measured here: cell count max response, cells fed with added oleic acid
Method in brief: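 Drosophila S3 cells loaded with oleic acid (400 uM, as added) and compounds at several concentrations; lipid droplets imaged by 488-nm laser-scanning cytometry, 500–530 nm intensity and object ratio to cell channel. Percent activity normalized to 20 uM Triacsin C.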

[1] = measured here: lipid fluorescence (Fed channel) AC50, cells fed with added oleic acid
[2] = measured here: cell number channel AC50, cells fed with added oleic acid

Row | SMILES | cell number change [%] | AC50 [1] | AC50 [2]
1 | CC(=Nc1ccccc1)C1=C(O)CSC1=O | 7.11 |  | 
2 | CN(CC(=O)Nn1cnnc1)S(=O)(=O)c1ccc(Br)cc1 | -7.67 |  | 
3 | CCOc1ccc(/C=N/N2C(C)CCCC2C)cc1 (centres undefined) | -21.3 |  | 
4 | Cc1sc(NC(=O)CCS(=O)(=O)c2ccccc2)c(C#N)c1C |  | 0.13 µM [rising, full curve, poor fit] | 
5 | CCC(=O)N1CCN(c2ccc(Cl)cc2NC(=O)c2cccc([N+](=O)[O-])c2)CC1 | -1.92 | 0.731 µM [rising, single point] | 
6 | O=c1ccc2cc(S(=O)(=O)N3CCN(c4ccccc4)CC3)ccc2o1 |  | 3.66 µM [falling, partial curve] | 
7 | COCC(C)NC(C(=O)Nc1ccc(C)c(Cl)c1)c1ccccc1 (centres undefined) | 146 |  | 
8 | CCc1nc(SCc2cccnc2)[nH]c(=O)c1C | -51.6 |  | 29.1 µM [falling, partial curve, poor fit]
9 | CCOc1cc(-c2sc(Nc3ccccc3)n[n+]2C)ccc1OC | -26.9 |  | 
10 | COC(=O)c1c(S(=O)(=O)N2CCOCC2)c(C)n(C)c1C | 16.9 | 25.9 µM [rising, single point] | 
11 | C=CCN(C(=O)c1cccc(C(F)(F)F)c1)C1(C(=O)Nc2ccccc2)CCN(C(C)C)CC1 | -31.2 | 0.0058 µM [falling, full curve, poor fit] | 
12 | COc1ccc(NS(=O)(=O)c2cccc(C(=O)NCC3CCCO3)c2)cc1 (centres undefined) |  | 29.1 µM [rising, single point] | 
13 | CCN(CC)CCNS(=O)(=O)c1ccc2c3c(cccc13)C(=O)N2 | -7.97 | 6.51 µM [rising, single point] | 
14 | COc1ccc(CCNC(=O)c2cc(Cl)nc3ccccc23)cc1 | 4.32 | 0.13 µM [rising, full curve, poor fit] | 
15 | COc1ccc(/C=C(\NC(=O)c2ccccc2)C(=O)NCCN2CCOCC2)cc1 | 2.1 |  | 
16 | CN(C)C(=O)N1CCCC(C(=O)NCc2cccs2)C1 (centres undefined) | -86.5 | 7.31 µM [falling, partial curve] | 29.1 µM [falling, partial curve]
17 | Nc1nnc(COc2ccc(Br)cc2Br)s1 | -7.05 |  | 
18 | O=C(NC1CCCCC1)C1CCC(CNS(=O)(=O)c2cccc3nsnc23)CC1 (centres undefined) | 24 |  | 
19 | CCOc1ccc2c(C)c(C)c(=O)oc2c1OCC |  | 6.51 µM [rising, single point] | 
20 | CCOC(=O)c1ccccc1NC(=O)CN1C(=O)c2ccccc2S1(=O)=O | 0.406 | 18.4 µM [rising, single point] | 
21 | Cc1ccccc1NS(=O)(=O)c1ccc(OCCNS(C)(=O)=O)cc1 | 16.1 |  | 
22 | CCNC(=S)N1CCN(S(=O)(=O)c2ccc(C)cc2)CC1 |  | 4.61 µM [falling, single point] | 0.461 µM [falling, partial curve]
23 | COc1cc2c(cc1NC(=O)COC(=O)C(CCSC)NC(=O)c1ccccc1Cl)oc1ccccc12 (centres undefined) | -16.5 |  | 

Row | SMILES | cell number change [%] | AC50 [1] | AC50 [2]
24 | Cc1ccc(S(=O)(=O)N2CCN(C(=O)N(c3ccccc3)c3ccccc3)CC2)cc1 | 54.8 |  | 5.17 µM [rising, partial curve, poor fit]
25 | Oc1ccc(/C=N/Nc2ncc(Br)cn2)c(O)c1 | -22.5 | 6.51 µM [falling, single point] | 
26 | Cc1cc(C)c(C)c(OCCCCN(C)Cc2ccccc2)c1 | -16.1 | 18.4 µM [falling, single point] | 
27 | CC12CC(NC(=O)N1CCc1ccccc1)c1ccccc1O2 (centres undefined) | -31 |  | 13 µM [falling, single point]
28 | Fc1ccccc1N1CC(c2ccccc2)C(c2cccs2)=N1 (centres undefined) | 3.24 | 0.184 µM [rising, full curve, poor fit] | 
29 | c1ccc(Nc2cccc(Nc3ccccc3)n2)cc1 | -125 |  | 29.1 µM [falling, single point]
30 | CCc1ccc2[nH]cc(C(=O)OCCOC)c(=O)c2c1 | 3.9 | 0.461 µM [falling, full curve, poor fit] | 
31 | O=C(COc1ccccc1Cl)Nc1nc(-c2cccs2)cs1 | -18 | 16.4 µM [falling, partial curve, poor fit] | 
32 | O=C(c1cccs1)N1CCN(C2CCCCC2)CC1 | 9.42 | 0.291 µM [falling, partial curve, poor fit] | 
33 | CCCCN(CC)Cc1ccc(CNC(=O)Nc2ccc(OCC)cc2)o1 | 44.3 | 18.4 µM [rising, single point] | 16.4 µM [rising, single point]
34 | O=C(Nc1cccc(S(=O)(=O)Nc2ccc(Cl)cc2)c1)c1ccc2c(c1)OCCO2 | -13.6 | 8.2 µM [rising, partial curve] | 
35 | COc1ccc(N2C(=NC(=O)c3ccc(Br)cc3)SC3CS(=O)(=O)CC32)cc1 (centres undefined) | -32 |  | 18.4 µM [falling, single point]
36 | Cc1ccc(C(=O)c2cc3ccccc3o2)cc1[N+](=O)[O-] | -57.8 |  | 
37 | O=C(NCc1ccccc1)c1cccc(COc2ccccc2Cl)c1 | -6.42 | 29.1 µM [falling, single point] | 
38 | Cc1ccc(-c2ccc(CCC(=O)O)n2NC(=O)c2cccs2)cc1 | -48.5 | 5.17 µM [falling, single point] | 0.00461 µM [falling, full curve, poor fit]
39 | Cc1nn(CC(=O)N2CCN(c3ccccc3)CC2)c(=O)c2ccccc12 | 16.4 |  | 
40 | CCOC(=O)C1CCCN(S(=O)(=O)c2c(C)noc2C)C1 (centres undefined) |  | 29.1 µM [rising, single point] | 
41 | CCc1ccccc1NC(=O)CNC(=O)c1cc(C2CC2)nn1-c1ccccc1 | 12.6 | 0.58 µM [falling, single point] | 
42 | COc1ccc(C(=O)COC(=O)CCNS(=O)(=O)c2ccccc2)cc1Br | -5.28 | 0.92 µM [falling, full curve] | 
43 | Cc1ccc(S(=O)(=O)N2CCN(C(=O)CCOc3ccccc3C)CC2)cc1C | 108 |  | 18.4 µM [rising, partial curve]
44 | C=CCn1c(Cc2ccccc2)n[nH]c1=S | 6.97 |  | 
45 | Cc1noc2ncnc(N3CCN(c4ccc(F)cc4)CC3)c12 | 17.8 | 16.4 µM [rising, single point] | 
46 | Cc1c(NC(=O)C23CC4CC(CC(C4)C2)C3)c(=O)n(-c2ccccc2)n1C | -15.7 | 29.1 µM [falling, single point] | 

Quoted from the listing:
For cell number change [%], Cc1c(NC(=O)C23CC4CC(CC(C4)C2)C3)c(=O)n(-c2ccccc2)n1C reads -15.7
For AC50 [1], COc1ccc(NS(=O)(=O)c2cccc(C(=O)NCC3CCCO3)c2)cc1 (centres undefined) reads 29.1 µM [rising, single point]
For AC50 [1], CCC(=O)N1CCN(c2ccc(Cl)cc2NC(=O)c2cccc([N+](=O)[O-])c2)CC1 reads 0.731 µM [rising, single point]
For AC50 [1], CN(C)C(=O)N1CCCC(C(=O)NCc2cccs2)C1 (centres undefined) reads 7.31 µM [falling, partial curve]

(listing goes on)

Row | SMILES | cell number change [%] | AC50 [1] | AC50 [2]
47 | Cc1cc(F)ccc1Oc1cc(NN2CCCCC2)c([N+](=O)[O-])cc1[N+](=O)[O-] | 6.8 | 29.1 µM [rising, single point] | 
48 | CC(C)(C)C(=O)NC(c1ccccc1)c1c(O)ccc2ccccc12 (centres undefined) | -61.4 | 23.1 µM [falling, partial curve] | 20.6 µM [falling, single point]
49 | COC(=O)[C@@H](Cc1ccccc1)NC(=O)NCCc1ccc(OC)c(OC)c1 | 40.8 |  | 16.4 µM [rising, partial curve]
50 | CC(=O)NN1C(=O)c2ccc3c4c(ccc(c24)C1=O)C(=O)N(NC(C)=O)C3=O | -47.5 | 2.59 µM [falling, partial curve, poor fit] | 8.2 µM [falling, partial curve]
51 | CSCCOC(=O)C1=C(C)Nc2ccc(C)cc2S1 | 0.483 | 6.51 µM [rising, single point] | 5.8 µM [rising, single point]
52 | COc1ccc(C)cc1NC(=O)C(C)N1CCOCC1 (centres undefined) | 6.63 |  | 
53 | CCc1c(C(C)O)oc2ccc3c(C)cc(=O)oc3c12 (centres undefined) | -9.32 | 29.1 µM [falling, single point] | 
54 | CCCCNC(=S)NNC(=O)c1cc(C)on1 | -2.09 |  | 
55 | COc1ccc(NC(=O)N2CCC(Cc3ccccc3)CC2)cc1 | -4.46 | 1.46 µM [falling, full curve] | 
56 | O=C(O)CCSc1ccccn1 | 11 | 0.411 µM [rising, single point] | 
57 | O=C(Nc1ccc2nsnc2c1)c1ccc2c(c1)OCO2 | -3.59 | 7.31 µM [rising, partial curve, poor fit] | 
58 | CC(=O)N1CCCc2cc(S(=O)(=O)N3CCCC(C(=O)Nc4ccc(C)cc4C)C3)ccc21 (centres undefined) | 36.3 | 16.4 µM [rising, single point] | 20.6 µM [rising, single point]
59 | CC1(C)Cc2cccc(OCC(=O)NC3CC3)c2O1 | -0.0966 |  | 
60 | CC12CC(NC(=O)N1c1cccc(C(=O)Nc3ncn[nH]3)c1)c1ccccc1O2 (centres undefined) | 2.81 | 29.1 µM [falling, single point] | 
61 | CCCC(NCC(=O)Nc1ccccc1C(=O)NC1CC1)c1ccccc1 (centres undefined) | 27.7 |  | 0.92 µM [rising, partial curve]
62 | Cc1ccc(S(=O)(=O)NC2CCCc3ccccc32)cc1C (centres undefined) | 52.6 | 0.0058 µM [rising, full curve, poor fit] | 29.1 µM [rising, single point]
63 | COc1cc(C)c(Cl)cc1S(=O)(=O)NCc1ccccn1 | 17.2 | 0.58 µM [falling, single point] | 
64 | COc1ccc(-c2cc(C(F)(F)F)nc(N3CCN(C)CC3)n2)cc1 | -34.5 |  | 
65 | Cc1ccc(NS(=O)(=O)c2c(C(=O)N3CCCCCC3)c(C)n(C)c2C)c(Cl)c1 | 12.2 |  | 
66 | CCN(CC)CP(=O)(c1ccccc1)c1ccccc1 | 12.4 |  | 
67 | CCCCCO | 6.78 | 25.9 µM [rising, single point] | 
68 | Cc1cc(C)n(-c2c(F)c(F)c(COC(=O)c3ccccc3)c(F)c2F)n1 |  |  | 5.17 µM [falling, single point]
